{
  "source": "patent US9567625B2",
  "about": "“Method for detection of microorganism and kit for detection of microorganism” (MORINAGA MILK INDUSTRY CO., LTD., priority 2006, dated 2017)",
  "key": {"[1]": {"system": "16S rRNA gene of Listeria", "assay": "PCR targeting the 16S rRNA gene after EMA treatment and topoisomerase poison or DNA gyrase poison treatment", "format": "cell-based, Listeria monocytogenes", "conditions": "Listeria injured cells, poison used together with EMA treatment, 30° C. for 30 minutes", "method": "The live cell count of the live cell suspension was 1.3×10^8 cfu/ml\nTherefore, the time for leaving the suspension at 4° C. under light shielding after the addition of EMA was shortened to 5 minutes, and the visible light irradiation time was also shortened to 5 minutes.\nAs described above, 1 tube of 1 ml EMA-untreated live cell suspension, […] of 1 ml EMA-treated live cell suspension, 1 tube of 1 ml EMA-untreated injured cell suspension, and 7 tubes of 1 ml EMA-treated injured cell suspension were prepared.\nThe EMA-treated live cell and injured cell suspensions were divided into 6 sets, each of which consisted of 1 tube of the live cell suspension and 1 tube of injured cell suspension.\nThe “PCR thermal cycle profile for amplification of 16S rRNA gene” mentioned in Example 3, 3-2) (Table 3) was applied.\nEach of the DNA solutions prepared in 2-3) was diluted to 15 ng/μl with TE buffer, and 10 μl of the diluted solution was used as a template DNA in 3-1-1) or 3-2-1) mentioned above. That is, 150 ng of the template DNA was contained in 50 μl of the PCR mixture. As a negative control, 10 μl of TE buffer was used.\nAccording to the PCR thermal cycle profile shown in 3-2-2) or 3-2-3) mentioned above, PCR was performed by using a real-time PCR apparatus i Cycler® (Biorad, model number: iQ).\nFor the detection of the hlyA gene amplification product, 3% agarose gel was used."}, "[2]": {"system": "Listeria monocytogenes JCM 2873", "assay": "Cleavage degree of chromosomal DNA by agarose gel electrophoresis after topoisomerase poison treatment", "format": "cell-based", "conditions": "amsacrine 50 μg/ml, incubated at 30° C. up to 72 hours"}},
  "note": "At least one structure is not confirmed: it was looked up by name or label, or the drawing left a doubt.",
  "data": [
    {"compound": "COc1cc(NS(C)(=O)=O)ccc1Nc1c2ccccc2nc2ccccc12", "note": "[amsacrine]", "values": [
      {"measurement": "inhibition of DNA amplification", "setting": "[1]", "result": "markedly inhibited"},
      {"measurement": "influence on chromosomal DNA (cleavage degree)", "setting": "[2]; Listeria injured cells", "result": "extremely long DNA fragment remained in the well clearly decreased"},
      {"measurement": "influence on chromosomal DNA (cleavage degree)", "setting": "[2]; Listeria live cells", "result": "temporarily decreased at 24 hours"}
    ]}
  ]
}
